This is one part of the list. These are further read-outs of the screen, such as a control signal, another cell line or another target. No call is given for them. Compounds called inactive in the main read-out are mostly missing here. Words in brackets tell the shape of the fitted curve; partial curves, single points and poor fits give uncertain potencies.

A short description of the test: qHTS Assay to Find Inhibitors of Chronic Active B-Cell Receptor Signaling. Conditions: ABC-DLBCL IkBa-CBG/CBR reporter, luminescence ratio (green luciferase fused to IkBa over red control in TMD8 lymphoma cells), 4 h. In a few lines: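 Cell line TMD8 (human ABC DLBCL), stably expressing tet-inducible CBG68-IkBa fusion and CBR; IMDM/0.5% FBS; cpd up to 46 uM; dox induction, 4 h, 37C/5% CO2; dual luminescence; green/red ratio; MG132 control.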

[1] abbreviates: measured here: CBR red luminescence, cell number.
Where [2] appears, read: measured here: IkBa-CBG green luminescence.

Take `C=CCNC(=S)N1CCc2c([nH]c3ccccc23)C1C` (configuration not stated): the AC50 – broadly, the concentration giving half of the maximal activity seen – under setting [1] is 12.6 µM [falling, partial curve]. In the case of `CCOc1ccc(Nc2nc(CC(=O)OC)cc(=O)[nH]2)cc1`, the AC50 under setting [1] is 29.1 µM [rising, single point]. The same measure, in the same setting: the value for `COc1ccccc1/C=N\Nc1ccccc1[N+](=O)[O-]` was 7.08 µM [rising, partial curve, poor fit]. Still for that read-out and setting: the same measure for `C=CCOc1ccc(S(C)(=O)=O)cc1`: 35.5 µM [rising, single point]. On the same count and under the same terms, the same measure for `COc1ccc(Nc2nc(Nc3ccc(OC)cc3)nc(-n3[nH]c(=O)c(C)c3C)n2)cc1`: 3.98 µM [falling, full curve, poor fit]; for `COc1cccc(-c2c3c([nH]c(=O)c2C#N)CCc2cc(OC)ccc2-3)c1`: 0.112 µM [rising, full curve, poor fit]; for `O=C(O)c1ccc(Nc2cnc3ccccc3n2)cc1`: 0.447 µM [falling, full curve].

For the compound `Cc1n[nH]c(C)c1CCc1nc2c3ccccc3nc(SCC(=O)Nc3ccc(F)cc3)n2n1`, under setting [1], the AC50 is 0.112 µM [rising, full curve, poor fit]. On the same count and under the same terms, the value for `COc1cc2c(cc1NC(=S)NC(=O)c1c(OC)cccc1OC)oc1ccccc12` was 4.11 µM [rising, full curve]; that for `O=C(CCc1ccccc1)Nc1cccnc1Cl` was 2.82 µM [rising, single point]; that for `CCc1cccc(CC)c1NC(=S)NCCc1ccc(O)c(O)c1` was 12.6 µM [falling, partial curve]. `Cc1cccc(C)c1OCc1n[nH]c(=S)n1-c1ccccc1`: the AC50 is, setting by setting: under setting [1], 35.5 µM [rising, single point]; under setting [2], 35.5 µM [falling, single point]. Regarding `COc1ccc(C(=O)Nc2ccc(C)cn2)c(OC)c1`, the AC50 under setting [1] was 1.03 µM [falling, full curve, poor fit]. Same read-out and setting: the same measure for `COc1ccc(CN(C)C(=O)c2cnc(OC)cc2C(F)(F)F)c(OC)c1`: 7.08 µM [falling, partial curve]. `Cc1c(C(=O)NNC(=O)c2csc(N3CCOCC3)n2)cccc1[N+](=O)[O-]`: under setting [1], the AC50 was 16.4 µM [rising, single point].

For `CCN(CC)c1ccc(/C=N/OC(C)C(=O)Nc2ccc(C)cc2)cc1` (configuration not stated), the AC50 under setting [1] was 14.6 µM [rising, partial curve, poor fit]. On the same count and under the same terms, the value for `CN(C)S(=O)(=O)c1ccc(Cl)c(NC(=O)COC(=O)[C@@H]2CCCN2C(=O)c2cccs2)c1` was 15.8 µM [rising, single point]. Same read-out and setting: the value for `O=C(NC(=S)Nc1cc([N+](=O)[O-])ccc1Cl)c1ccccc1` was 0.146 µM [falling, full curve, poor fit]; that for `Cc1ccc(-c2nnn(CC(=O)N(CC3CCCO3)C(C(=O)NCC3CCCO3)c3ccc(F)cc3)n2)o1` (configuration not stated) was 6.51 µM [rising, partial curve]. On the same count and under the same terms, the value for `O=c1c2ccccc2[nH]c(=S)n1CCCN1CCN(C2CCCCC2)CC1` was 29.1 µM [rising, single point]; that for `CCOC(=O)N1CCC(n2c(SCC(=O)NCCc3ccc(S(N)(=O)=O)cc3)nc3ccccc3c2=O)CC1` was 25.1 µM [falling, single point]. Take `Cc1ccc(C(=S)NCS(=O)(=O)c2ccc(C)cc2)cc1`: the AC50 under setting [2] was 15.8 µM [falling, single point]. In the case of `CCCC(=O)C1=C(c2ccc(C)cc2)N(C(=O)CCC)n2cnnc2S1`, the AC50 under setting [2] was 25.1 µM [falling, single point]. As to `Cc1ccc(S(=O)(=O)N2CCCC2C(=O)n2nc(C)cc2C)cc1` (configuration not stated), the AC50 under setting [1] is 0.731 µM [rising, full curve, poor fit]. With `Cc1ccnc(NS(=O)(=O)c2ccc(NC(=O)CSc3nc(-c4ccccc4)cc(=O)[nH]3)cc2)n1`, the half-maximal activity concentration (AC50) under setting [1] was 3.55 µM [falling, full curve]. On the same count and under the same terms, the same measure for `C/C(=C\c1ccc(C(=O)O)cc1)c1ccc2c(c1)C(C)(C)CCC2(C)C`: 20.6 µM [falling, single point].

As for `O=C(NN=C1CCCC1)c1cc(Br)ccc1O`, the AC50 under setting [1] is 1.26 µM [falling, full curve].

As for `C/C(=N\NS(=O)(=O)c1ccc(Br)cc1)c1ccncc1`, the AC50 under setting [1] was 14.1 µM [falling, single point]. Turning to `CCCCNc1nc2sc3c(c2c(=O)n1-c1cccc(Cl)c1)CCN(C)C3`, the AC50 under setting [1] is 3.55 µM [rising, single point].

With `CC1CCCN(c2ccc(C(=O)NCc3cccs3)cn2)C1` (configuration not stated), the AC50 under setting [1] is 20.6 µM [falling, single point]. In the case of `OCCNCCNCc1ccccc1OCc1ccccc1`, the AC50 under setting [1] was 12.6 µM [falling, single point]. Still for that read-out and setting: the same measure for `CCOc1nc(C)nc(NC(=O)NS(=O)(=O)c2ccccc2Cl)n1`: 0.82 µM [rising, full curve]; for `COc1ccc(CCNC(=S)NCCc2c[nH]c3ccccc23)cc1`: 11.2 µM [falling, single point]; for `Cc1cc(C)nc(NC(=NCCc2c[nH]c3ccccc23)NC(=O)Nc2cccc([N+](=O)[O-])c2)n1`: 6.51 µM [rising, single point]. On the same count and under the same terms, the same measure for `O=S(=O)(NCc1ccc(Cl)cc1Cl)c1cccs1`: 17.8 µM [rising, single point]; for `N/C(=N\N=C\c1ccc([N+](=O)[O-])cc1)c1nonc1N`: 0.112 µM [rising, full curve, poor fit]. On the same count and under the same terms, the value for `CCSC1=NSC2=NC(=O)/C(=C\c3coc4ccccc4c3=O)C(=N)N12` was 2.91 µM [rising, partial curve]. Turning to `COc1cccc(C(=O)Oc2ccccc2/C=C\C(=O)c2cc3ccccc3o2)c1`, the AC50 under setting [1] is 0.164 µM [falling, full curve, poor fit]. Still for that read-out and setting: the same measure for `Cc1cc(NC(=O)COc2ccccc2)ccc1Cl`: 1.26 µM [rising, partial curve]; for `CC(C)(C)C1=CC(O)(c2ccccc2)C=C(C(C)(C)C)C1=O`: 2.82 µM [rising, partial curve, poor fit]. In the case of `OC[C@H]1O[C@@H](n2cnc3c(Nc4ccccc4)ncnc32)[C@H](O)[C@@H]1O`, the AC50 under setting [2] was 3.98 µM [falling, partial curve].

The values are drawn from PubChem BioAssay AID493014 (National Center for Advancing Translational Sciences (NCATS), 2011).
